Experimental data reported in PubChem BioAssay AID504834 (National Center for Advancing Translational Sciences (NCATS), 2011).
Several values for one entry are separate records, joined by “and”; a condition that tells them apart may be missing. Equal entries are not always repeated. Among all 320,000 compounds or so, about 22,000 (6.9%) were called active. The shares of active, inactive and inconclusive entries below differ from those in the screen. The call rests on the fitted dose curve; in most records, active means well fitted inhibition curve with a large enough effect; inconclusive means small, poorly fitted or top-dose-only effect, or another doubt; inactive means no such curve, though single readings can be large or run the other way. Potencies of inconclusive entries are doubtful fits and often do not repeat. Where a SMILES comes first, the peptide text is derived from it. [ ]: non-standard residue; d: D form. The star is where a group is joined. ξ: configuration not given here. Cbz = O=C(OCc1ccccc1)*; ξS = NC(CO)C(=O)O

Test: Primary qHTS for delayed death inhibitors of the malarial parasite plastid, 96 hour incubation
Conditions: P. falciparum luciferase reporter growth; series mostly up to 28.7 µM
How it was run: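 Compounds incubated with erythrocytes infected by luciferase-expressing P. falciparum (2% hematocrit, 0.05% parasitemia final) for 96 hours, 37 C in 5% CO2. Growth inhibition scored as decreased luciferase luminescence.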
On the % scale 0 is the no-effect control and ±100 the full control effect; potency means the concentration at half of the fitted maximal effect.

Structure (SMILES) | Potency | activity change, negative = inhibition
CCOc1ccccc1-n1c(SCC(=O)N2CCOCC2)nc2ccccc2c1=O | inactive | 
CCOC(=O)c1ccccc1NC(=O)c1cn(-c2ccc(C)c(C)c2)c(=O)c2ccccc12 | inconclusive: 16.5 µM [inhibitor, single point] | 
CCOc1ccc(NC2=NC(C(=O)NCc3ccccc3)CC(=O)N2)cc1 (configuration not stated) | inconclusive: 11.7 µM [inhibitor, partial curve] | 
Cc1ccc(NC(=O)n2ncc3c(C)cccc32)cc1F | inactive | 
Cn1c(SCc2ccccc2Cl)nc(C(F)(F)F)cc1=O | inactive | 
O=C(Nc1c(Cl)cccc1Cl)c1ccc(-c2ccccc2)cc1 | inactive | 
CSc1ccccc1C(=O)C1CCCN(C(=O)c2ccc(N3CCOCC3)cc2)C1 (configuration not stated) | active: 10.4 µM | 
Cn1c(=O)n(-c2ccc(Cl)cc2)c(=O)c2c3c(sc21)COC(C)(C)C3 | inconclusive: 10.4 µM [inhibitor, single point] | 
Cc1ccc(N=Cc2c(O)[nH]c3ccccc23)c([N+](=O)[O-])c1 | inactive | 
Cc1cc(Cl)ccc1C(=O)C1CCCN(C(=O)c2snnc2C)C1 (configuration not stated) | inconclusive: 18.5 µM [inhibitor, single point] | 
CCOc1ccc(N(CC(=O)N2CCN(C(=O)CN(c3ccc(OCC)cc3)S(C)(=O)=O)CC2)S(C)(=O)=O)cc1 | inconclusive: 9.28 µM [inhibitor, single point] | 
N#Cc1ccc2c(c1)C[C@]1(CCCCN3C(=O)c4ccccc4C3=O)Oc3c(c(=O)oc4ccccc34)C2O1 |  | inactive: -18.6% [at 5.75 µM]
Cc1cc(C)c(C(=O)CC(=O)c2ccccc2Cl)c(O)c1 | inconclusive: 13.1 µM [inhibitor, partial curve] | 
CCOc1ccc(S(=O)(=O)N2CCCCC2)cc1NC(=O)CN1C(=O)NC(C)(c2ccccc2)C1=O (configuration not stated) | inconclusive: 13.1 µM [inhibitor, partial curve] | 
Cc1ccc(C)c(NC(=O)c2ccc3nccnc3c2)c1 | active: 8.28 µM | 
COC(=O)C1=CN(C(C)C)C=C(C(=O)OC)C1c1cc(Br)c(OC)c(OC)c1 | active: 7.38 µM | 
Cc1ccccc1NC(=O)c1[nH]cnc1C(=O)NN | inconclusive: 1.85 µM [inhibitor, full curve, poor fit] | 
O=C(CCN1C(=O)/C(=C\c2ccccc2)SC1=S)NCCCN1CCOCC1 | active: 7.38 µM | 
CCCCOC(=O)Nc1ccc(C)c(Cl)c1 | inconclusive: 13.1 µM [inhibitor, single point] | 
COc1ccc(C(=O)N/C(=C\c2cn(S(=O)(=O)N(C)C)c3ccccc23)C(=O)NC(C)C)cc1 | inconclusive: 11.7 µM [inhibitor, single point] | 
COC(=O)C1=C(C)N(CCc2c[nH]c3ccccc23)C(=O)C1 | inactive | 
CC(C)CC1NC(=S)N(C2CCCCC2)C1=O (configuration not stated) | inconclusive: 3.7 µM [inhibitor, partial curve, poor fit] | 
Cc1cc(C)c2cc(C(c3nnnn3CC3CCCO3)N3CCN4CCCC4C3)c(=O)[nH]c2c1 (configuration not stated) |  | inactive: -2.4% [at 5.75 µM]
COc1cnc(-c2ccccn2)nc1Sc1ccc(Cl)cc1 | active: 1.65 µM | 

Grouped by structure, the compounds so far with an aryl methoxy group
Structure (SMILES) | Potency | activity change, negative = inhibition
COC(=O)C1=CN(C(C)C)C=C(C(=O)OC)C1c1cc(Br)c(OC)c(OC)c1 | active: 7.38 µM | 
COc1ccc(C(=O)N/C(=C\c2cn(S(=O)(=O)N(C)C)c3ccccc23)C(=O)NC(C)C)cc1 | inconclusive: 11.7 µM [inhibitor, single point] | 
COc1cnc(-c2ccccn2)nc1Sc1ccc(Cl)cc1 | active: 1.65 µM | 

(continued)

Structure (SMILES) | Potency | activity change, negative = inhibition
COc1ccc(Nc2cc(Sc3ccc(OC)cc3)ncn2)cc1 | inconclusive: 8.28 µM [inhibitor, partial curve] | 
O=C(NCCCN1CCOCC1)/C(=C/c1ccc(F)cc1)NC(=O)c1ccccc1 | inconclusive: 8.28 µM [inhibitor, partial curve] | 
CCOC(=O)C1=C(C)NC(=O)NC1c1ccc(N(CC)CC)cc1 (configuration not stated) | inconclusive: 18.5 µM [inhibitor, single point] | 
CC(=O)CSc1ncnc2sc3c(c12)CCCC3 | inactive | 
Cc1ccc(CNC(=S)NC2CCCCC2)cc1 | inconclusive: 18.5 µM [inhibitor, single point] | 
O=C(Cn1cc(C(F)(F)F)cc(Cl)c1=O)NCc1ccc(Cl)cc1Cl | inconclusive: 2.08 µM [inhibitor, full curve] | 
COc1ccccc1CSc1nc2c(c(=O)n(C)c(=O)n2C)n1C | inactive | 
COc1ccccc1NC(=O)N1CCCC1C(=O)Nc1ccc2c(c1)OCCO2 (configuration not stated) | inconclusive: 2.33 µM [inhibitor, partial curve, poor fit] | 
COCCNC(=O)C(=O)Nc1ccc2c(c1)N(S(=O)(=O)c1cccs1)CCC2 | inconclusive: 11.7 µM [inhibitor, single point] | 
O=C(CCN1C(=O)C2C3C=CC(C3)C2C1=O)N1CCN(c2ccc([N+](=O)[O-])cc2)CC1 (configuration not stated) | inconclusive: 1.85 µM [inhibitor, partial curve, poor fit] | 
CC1(C)CC(=O)C(N=Nc2ccc(-c3ccccc3)cc2)=C(O)C1 | inactive | 
Cc1ccc(NC(=O)c2ccc(S(=O)(=O)NCc3cccnc3)cc2)c(C)c1 | inactive | 
Cc1ccc(S(=O)(=O)N2CCCc3ccccc32)cc1C | inactive | 
CCN(C(=O)CN1C(=O)/C(=C/c2ccccc2F)SC1=S)C1CCS(=O)(=O)C1 (configuration not stated) | inconclusive: 11.7 µM [inhibitor, single point] | 
COc1ccc(C(=O)C[n+]2ccc(-c3nnc4n3CCC4)cc2)cc1 | inconclusive: 18.5 µM [inhibitor, single point] | 
COc1ccccc1CNC(=O)COC(=O)c1ccc(C)c(S(=O)(=O)N2CCOCC2)c1 | inactive | 
CC(C)[C@H](N)C(=O)OCCOCn1cnc2c(=O)[nH]c(N)nc21 | inactive and inconclusive: 12 µM [inhibitor, partial curve, poor fit] | 
OC(CNCc1ccccc1Cl)C(F)(F)F (configuration not stated) | inactive | 
NC1=C(Br)C(=O)c2ccccc2C1=O | active: 1.04 µM | 
COc1ccc(CNC(=O)[C@@H]2CCCN2C(=O)[C@@H]2Cc3ccccc3CN2C(=O)OC(C)(C)C)cc1 | inconclusive: 18.5 µM [inhibitor, single point] | 
N/C(=N\OC(=O)N1CCOCC1)c1ccccc1 | active: 8.28 µM | 
Cc1cc(=O)[nH]c(CCl)n1 | inconclusive: 0.185 µM [inhibitor, full curve, poor fit] | 
COCCCN1C(=O)c2ccc(C(=O)Nc3ccccc3OC)cc2C1=O | active: 4.65 µM | 
CCOc1ccc(OCC(=O)OCC(=O)NCC2CCCO2)cc1 (configuration not stated) | inactive | 

Structure (SMILES) | Potency | activity change, negative = inhibition
COC(=O)Cc1c(O)ccn(CCc2ccc(S(N)(=O)=O)cc2)c1=O | inconclusive: 0.415 µM [inhibitor, full curve, poor fit] | 
CCN1C(=O)[C@@H]2[C@@H](c3ccc(SC4CCCCC4)c(OC)c3)N3CCC[C@@]3(C(=O)OC)[C@@H]2C1=O | inconclusive: 0.828 µM [inhibitor, full curve] | 
CCOC(=O)CNC(=O)C(CO)NC(=O)OCc1ccccc1 (configuration not stated) (Cbz-[ξS]-Gly-OEt) | inconclusive: 1.17 µM [inhibitor, partial curve, poor fit] | 
Cc1ccc(C(=O)Nc2nnc(Cc3ccccc3)s2)cc1 | inactive | 
CCc1cc(N2CCOCC2)cc2c1[nH]c1ccccc12 | inconclusive: 14.7 µM [inhibitor, single point] | 
Cc1ccc(C(=O)NCCC2=CCCCC2)cc1S(=O)(=O)N1CCOCC1 | inconclusive: 2.62 µM [inhibitor, full curve] | 
COc1ccc(CCN(C)C(=O)/C=C/c2c(Cl)nc3ccccn23)cc1OC | inconclusive: 3.29 µM [inhibitor, partial curve, poor fit] | 
COc1cc(NC(=O)CSc2nccc(C)n2)c(C)cc1[N+](=O)[O-] | inactive | 
CCCOC(=O)CCCC[C@H]1SC[C@@H](NC(=O)OC)[C@H]1NC(=O)OC | inconclusive: 11.7 µM [inhibitor, single point] | 
CN(CCOc1ccccc1)C(=O)c1ccc(OC2CCN(C(=O)C3CC3)CC2)cc1 | inconclusive: 18.5 µM [inhibitor, single point] | 
CCS(=O)(=O)NCCc1csc(C)n1 | inconclusive: 18.5 µM [inhibitor, single point] | 
Fc1ccccc1/C=C/c1ccc2ccccc2n1 | inconclusive: 20.8 µM [inhibitor, single point] | 
CCCOc1ccc(C(=O)N/N=C/c2c[nH]c3ccc(Br)cc23)cc1 | inconclusive: 4.65 µM [inhibitor, partial curve] | 
CCn1c(=O)n(CC)c2cc(N3CCCC3)c(NC(=O)c3cc(Br)ccc3OC)cc21 | inconclusive: 2.94 µM [inhibitor, full curve] | 
CCOCC(=O)Nc1ccc2c(c1)OCCO2 | inactive | 
CCCOC(=O)c1ccc(NC(=O)COC)cc1 | inactive | 
O=C(CSCc1ccco1)c1ccc(Cl)s1 | active: 11.7 µM | 
COc1ccccc1-n1cnc2cc(C(=O)NC3CCCC3)ccc21 | inconclusive: 14.7 µM [inhibitor, single point] | 
CCCCN1CNC(=S)N(Cc2ccccc2)C1 | active: 9.28 µM | 
CC(C)CC1c2[nH]c3ccccc3c2CCN1C(=O)c1cnccn1 (configuration not stated) | inconclusive: 16.5 µM [inhibitor, single point] | 
CC1CC(C)CN(c2nc(NCc3ccco3)nc(N)c2[N+](=O)[O-])C1 (configuration not stated) | inconclusive: 0.415 µM [inhibitor, partial curve, poor fit] | 
CC1CC1C(=O)OCC(=O)Nc1ncc(Cl)cc1Cl (configuration not stated) | inactive | 
COC(=O)c1cccc(-n2c(=O)n(Cc3ccccc3)c(=O)c3[nH]cnc32)c1C | inconclusive: 0.465 µM [inhibitor, full curve, poor fit] | 
COc1ccc(N(CC(=O)Nc2ccccc2C)S(=O)(=O)c2ccccc2[N+](=O)[O-])c(OC)c1 | inconclusive: 4.65 µM [inhibitor, full curve, poor fit] | 

3 successive compounds from above:
Structure (SMILES) | Potency | activity change, negative = inhibition
COc1ccccc1CNC(=O)COC(=O)c1ccc(C)c(S(=O)(=O)N2CCOCC2)c1 | inactive | 
CC(C)[C@H](N)C(=O)OCCOCn1cnc2c(=O)[nH]c(N)nc21 | inactive and inconclusive: 12 µM [inhibitor, partial curve, poor fit] | 
OC(CNCc1ccccc1Cl)C(F)(F)F (configuration not stated) | inactive | 
